This passage reports binding signal results from PMC7819943, “Rice protein-binding microarrays: a tool to detect cis-acting elements near promoter regions in rice”.

By UniProt entry, the sequences of proteins in these tests, tags left out.
UniProt Q0JBA9, entry or part of it: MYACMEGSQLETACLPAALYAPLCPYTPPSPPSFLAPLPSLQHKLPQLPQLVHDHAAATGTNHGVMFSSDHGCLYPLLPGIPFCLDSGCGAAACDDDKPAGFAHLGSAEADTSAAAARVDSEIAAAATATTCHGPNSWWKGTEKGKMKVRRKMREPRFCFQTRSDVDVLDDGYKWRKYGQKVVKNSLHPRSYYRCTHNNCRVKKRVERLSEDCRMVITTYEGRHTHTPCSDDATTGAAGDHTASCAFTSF

This is one part of the list.

The assay concerns the target OsWRKY34 (Oryza sativa, UniProt Q0JBA9 1-250). Put plainly: protein-binding microarray (RPBM); PBS, 2% BSA, 51.3 ng/ul salmon testes DNA, 50 uM zinc acetate, 200 nM TF, 25 C, 1 h; high values mean tight binding. The note with it: protein: recombinant; tags: N-terminal polyhistidine and DsRed monomer fusion (pET32a); label: CyDye5-dUTP incorporated in the synthesized complementary strand; 3' TTTTT single-stranded linker to array surface; dsDNA, one strand shown. In a few lines: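 Binding signal here means per-feature fluorescence intensity in arbitrary units. The values were read on an Axon 4000B scanner after a custom Agilent array, double-stranded by primer extension with Cy5-dUTP, was incubated with 200 nM protein at 25 °C for 1 h in PBS with 2% BSA, salmon testes DNA and 50 µM zinc acetate, then washed. The proteins were transcription factors with an N-terminal polyhistidine tag and DsRed, expressed in E. coli BL21-CodonPlus and purified on Ni–NTA.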
Take “ACTCCTATGAACCATTGCGCCTCACTGCCACACATATCGCCGGAGTCACCTAGTGCAG”: the binding signal is 9380 fluorescence intensity (a.u.).
As for “TGATAGGAATCTCAACTTTTCGTAGTACATGTTTATACATCGGAGTCACCTAGTGCAG”, the binding signal is 8240 fluorescence intensity (a.u.).
With “TTTTCTTTTTTTCAATTTTTTTTACCTTTTCCCAGTTTTCCGGAGTCACCTAGTGCAG”, the binding signal was 8990 fluorescence intensity (a.u.).
The result for “TCTACCGGAATACTGTTACGCTGACGTAGACATGAGTAAGCGGAGTCACCTAGTGCAG” reads 14000 fluorescence intensity (a.u.); that for “ATTTCCATGTTGTTATACTTGTGCTCCTGGCTGTAAAATACGGAGTCACCTAGTGCAG”, 9410 fluorescence intensity (a.u.); that for “AATTTGGGGTTGGTTGTCACATCAGATATACGGATACACACGGAGTCACCTAGTGCAG”, 10100 fluorescence intensity (a.u.).
Take “CTGTATCTGTTCATGGTAAAATCAATCCGGATATTTCATCCGGAGTCACCTAGTGCAG”: the binding signal was 9700 fluorescence intensity (a.u.).
To “AGATCCCCTTTTTTCTCCTTGGCATTTGTGTTGCATTTGTCGGAGTCACCTAGTGCAG” belongs 10300 fluorescence intensity (a.u.); to “CTCCACCTTCATCTCGGTTTTAAATTTTCCCGGCAAATGTCGGAGTCACCTAGTGCAG”, 11700 fluorescence intensity (a.u.).
To “CTCTGGTTGTTCCCACCCTCCCTCTCGCACGCACGGACGTCGGAGTCACCTAGTGCAG” belongs 9390 fluorescence intensity (a.u.); to “ACCTAGCTTCCATGTTTGACCAATCAAATTAATTACCATTCGGAGTCACCTAGTGCAG”, 11100 fluorescence intensity (a.u.); to “GGGGAAGGAGGATGGGGTTTTGTAATTCGGGATTCGGAGGCGGAGTCACCTAGTGCAG”, 10800 fluorescence intensity (a.u.).
Take “GAGTAGATGTTGTGCTTGTGGGTTATCTGAGTTGGTTGGTCGGAGTCACCTAGTGCAG”: the binding signal is 9410 fluorescence intensity (a.u.).
Turning to “CTTCGCCTCTCTCGTCTCGTCCGAGTTTCCGACCCGACCCCGGAGTCACCTAGTGCAG”, the binding signal was 8090 fluorescence intensity (a.u.).
In the case of “TCAGCTCCTCCCTCTCTCCTGCTGCGTTGTTTGGTTGGGCCGGAGTCACCTAGTGCAG”, the binding signal was 8250 fluorescence intensity (a.u.).
The result for “ACGGTGCCGAACGAGCTTGGGGATGGGGACGGCGGCGGGGCGGAGTCACCTAGTGCAG” reads 10200 fluorescence intensity (a.u.); that for “AACCAAACCCCACCACCACACAAACGCATGCGCGCGCGCTCGGAGTCACCTAGTGCAG”, 8200 fluorescence intensity (a.u.); that for “CTGTGTTTTCTATTTTTCTCTGTTTTACATCTATCTTCTTCGGAGTCACCTAGTGCAG”, 19100 fluorescence intensity (a.u.).
In the case of “GATTTCCTCTCTAACTGTGTAATTAGTTTTTTCATTTATCCGGAGTCACCTAGTGCAG”, the binding signal was 9550 fluorescence intensity (a.u.).
For “AGGGTGTGTTTCGTTTTATGGCCATCTAAAGTCTAACCTTCGGAGTCACCTAGTGCAG”, the binding signal is 10300 fluorescence intensity (a.u.).
To “GTTAATTTACTATTCTGTTTTATTCTGGTTGTTGATAATACGGAGTCACCTAGTGCAG” belongs 8570 fluorescence intensity (a.u.); to “CCCCTCGCCTGAGTGCGTGCGCCCGCGGCCGCGCCTCCGCCGGAGTCACCTAGTGCAG”, 8070 fluorescence intensity (a.u.).
To “GAACTAGCGTCAAATCACATCGAGACAACATGCGGGCTTTCGGAGTCACCTAGTGCAG” belongs 8800 fluorescence intensity (a.u.).
To “GTGTGGCGGACATGTGGGCCCATGATTTTTATTATTTTTCCGGAGTCACCTAGTGCAG” belongs 9790 fluorescence intensity (a.u.); to “TTATCAAATTTCTCCCACACGGTTAGTTTCGGCCCATCTACGGAGTCACCTAGTGCAG”, 8170 fluorescence intensity (a.u.); to “GTCTACTGCTTCACTTCACTTTCACAGTTTCACTGTATGACGGAGTCACCTAGTGCAG”, 9060 fluorescence intensity (a.u.).
In the case of “CCTCGTAGCTTTCCATTCCTGGCCACCCATCACTGCCGGACGGAGTCACCTAGTGCAG”, the binding signal is 9970 fluorescence intensity (a.u.).
The result for “ATCTAAAGCACACTTACATATGCGTATCATTCTTGGTTATCGGAGTCACCTAGTGCAG” reads 8250 fluorescence intensity (a.u.); that for “CCATCACTAGAGCCTTTTGCCTTTGCTTGCACAATTACATCGGAGTCACCTAGTGCAG”, 8850 fluorescence intensity (a.u.).
To “CCATGTCGCACTCTTTCTCGCCGGGCCCACACAACACGGCCGGAGTCACCTAGTGCAG” belongs 12600 fluorescence intensity (a.u.); to “CGTCTCTTTTATCCTTCTTTTTTTTCCCATTTTTCTTTTTCGGAGTCACCTAGTGCAG”, 11900 fluorescence intensity (a.u.).
As for “GATTTGATAATGTGGTGCTACAGTATACTTTGCTAATGACCGGAGTCACCTAGTGCAG”, the binding signal is 9710 fluorescence intensity (a.u.).
On to “GGTCTTGGTTTCGTCAGCGCCATGGTGTTGTGTGACTTGTCGGAGTCACCTAGTGCAG”, for which the binding signal was 9490 fluorescence intensity (a.u.).
Turning to “GCTTGTACTCTCCTGGTCCTGGCGTCCTGCCGTCCTTGGCCGGAGTCACCTAGTGCAG”, the binding signal is 10600 fluorescence intensity (a.u.).
The result for “CCCTGAGGCACACGGCGCACTCCTCCTGCCTCGCGTCGCACGGAGTCACCTAGTGCAG” reads 8120 fluorescence intensity (a.u.).
The result for “CCCAAAATGCCCCACTACATGCGCCACGCCGCGCGCTTCCCGGAGTCACCTAGTGCAG” reads 9300 fluorescence intensity (a.u.).
To “ACACACAACTTTTCAGTCATATCGTACCAATTTCAACCCACGGAGTCACCTAGTGCAG” belongs 10500 fluorescence intensity (a.u.).
On to “TGAGTGTTTGGTGCGTGTGGTTTCTTGGGAGATCATGTTACGGAGTCACCTAGTGCAG”, for which the binding signal was 11100 fluorescence intensity (a.u.).
With “GAACACTTAACTCGTTTTCACCGGATATGTTCTCGTAGTTCGGAGTCACCTAGTGCAG”, the binding signal was 9800 fluorescence intensity (a.u.).
The result for “CCTCAACCCTTCGTGTTATCTAGTGTCCATATCATTAAATCGGAGTCACCTAGTGCAG” reads 9210 fluorescence intensity (a.u.); that for “GAACGGTCAAACATGTTTAAAAAAGTCAACGGCGTCAAACCGGAGTCACCTAGTGCAG”, 14000 fluorescence intensity (a.u.); that for “GAATCCACCGCATTTTTCCGCCGCCCCACGCGGCGCCACCCGGAGTCACCTAGTGCAG”, 19700 fluorescence intensity (a.u.).
